# Melanoma cell counts after drug treatment

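The test systems are human melanoma cell lines, treated with a pair of drugs for 72 h and then stained and imaged. The read-out is cell count (nuclei) in % of the DMSO control; lower values mean stronger growth inhibition or killing. Concentrations were fixed for each drug; these are the lower of two levels, a fifth of the higher. The file gives one value for each pair and line, without errors, so small differences may be noise.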
Only some of the drugs and lines screened are listed, without regard to their results.

All values are for the listed drug together with midostaurin (0.08 µM): CO[C@@H]1[C@H](N(C)C(=O)c2ccccc2)C[C@H]2O[C@]1(C)n1c3ccccc3c3c4c(c5c6ccccc6n2c5c31)C(=O)NC4

Second drug,C32,A375,A101D,A2058
C=CCNC1=C2C[C@@H](C)C[C@H](OC)[C@H](O)[C@@H](C)/C=C(\C)[C@H](OC(N)=O)[C@@H](OC)/C=C\C=C(/C)C(=O)NC(=CC1=O)C2=O at 0.002 µM,67.3,93.2,79.4,81.0
CN(C)S(=O)(=O)c1ccc2c(c1)/C(=C/c1cc3c([nH]1)CCCC3)C(=O)N2 at 0.4 µM,75.8,69.8,78.2,87.3
CCCS(=O)(=O)Nc1ccc(F)c(C(=O)c2c[nH]c3ncc(Cl)cc23)c1F at 0.08 µM,80.3,93.4,106,96.4
NC1(c2ccc(-c3nc4ccn5c(=O)[nH]nc5c4cc3-c3ccccc3)cc2)CCC1 at 0.4 µM,97.7,65.7,68.9,71.0
N#CC[C@H](C1CCCC1)n1cc(-c2ncnc3[nH]ccc23)cn1 at 1 µM,91.6,84.6,92.4,95.9
Cn1nnc2c(C(N)=O)ncn2c1=O at 2 µM,91.6,96.1,83.1,70.0
CCCCCCCCCCCCCCCCCCOP(=O)([O-])OC1CC[N+](C)(C)CC1 at 0.4 µM,98.1,30.2,83.2,70.2
C=C(c1ccc(C(=O)O)cc1)c1cc2c(cc1C)C(C)(C)CCC2(C)C at 2 µM,101,80.5,93.8,82.8
C[C@@H](Oc1cc(-c2cnn(C3CCNCC3)c2)cnc1N)c1c(Cl)ccc(F)c1Cl at 0.2 µM,107,84.0,92.0,88.2
CN(NC(=O)CC(=O)NN(C)C(=S)c1ccccc1)C(=S)c1ccccc1 at 0.006 µM,82.0,41.4,70.0,63.4
CN(c1ncccc1CNc1nc(Nc2ccc3c(c2)CC(=O)N3)ncc1C(F)(F)F)S(C)(=O)=O at 0.08 µM,65.8,81.2,78.3,87.1
C#Cc1cccc(Nc2ncnc3cc(OCCOC)c(OCCOC)cc23)c1 at 0.8 µM,96.0,66.4,87.3,71.9
OCc1c[nH]c2ccccc12 at 0.8 µM,101,107,77.5,82.8
Cn1cncc1[C@@](N)(c1ccc(Cl)cc1)c1ccc2c(c1)c(-c1cccc(Cl)c1)cc(=O)n2C at 0.01 µM,84.5,70.7,87.3,81.2
Nc1cccc2c1CN(C1CCC(=O)NC1=O)C2=O (stereo unspecified) at 1 µM,91.5,77.4,100,87.3
CS(=O)(=O)c1ccc(C(=O)Nc2ccc(Cl)c(-c3ccccn3)c2)c(Cl)c1 at 1 µM,92.6,117,102,96.0
C[As](C)SC[C@H](NC(=O)CC[C@H](N)C(=O)O)C(=O)NCC(=O)O at 0.4 µM,100,88.7,93.6,90.5
COc1cc(Nc2ncc(F)c(Nc3ccc4c(n3)NC(=O)C(C)(C)O4)n2)cc(OC)c1OC at 0.4 µM,91.2,74.1,65.1,68.3
Cc1cc(Nc2cc(N3CCN(C)CC3)nc(Sc3ccc(NC(=O)C4CC4)cc3)n2)n[nH]1 at 0.006 µM,94.9,87.4,76.7,78.3
CS(=O)(=O)CCNCc1ccc(-c2ccc3ncnc(Nc4ccc(OCc5cccc(F)c5)c(Cl)c4)c3c2)o1 at 0.8 µM,85.6,83.9,81.2,77.0
N.N.[Cl][Pt][Cl] at 1.6 µM,79.8,99.3,87.0,84.1
O=C(Nc1cc(C(F)(F)F)cc(C(F)(F)F)c1)c1cc(Cl)ccc1O at 0.016 µM,96.1,90.0,87.3,79.6
Clc1ccc(Nc2nnc(Cc3ccncc3)c3ccccc23)cc1 at 2 µM,91.1,97.0,77.7,75.6
C[C@@H](N)c1ccc(C(=O)Nc2ccnc3[nH]ccc23)cc1 at 0.4 µM,64.3,79.4,89.6,76.5
CN1CCN(c2ccc3nc(-c4c(N)c5c(F)cccc5[nH]c4=O)[nH]c3c2)CC1 at 0.1 µM,104,84.4,79.6,82.6

For reference, 2 entries once more:

| Second drug | C32 | A375 | A101D | A2058 |
|---|---|---|---|---|
| O=C(Nc1cc(C(F)(F)F)cc(C(F)(F)F)c1)c1cc(Cl)ccc1O at 0.016 µM | 96.1 | 90.0 | 87.3 | 79.6 |
| C#Cc1cccc(Nc2ncnc3cc(OCCOC)c(OCCOC)cc23)c1 at 0.8 µM | 96.0 | 66.4 | 87.3 | 71.9 |

From a melanoma drug combination screen (doi:10.1371/journal.pone.0140310); values rounded.